In patent publication US20220184084A1, “COMPOSITIONS AND METHODS FOR TREATING CUSHING'S DISEASE” (The Regents of the University of California, priority 2019, published 2022):

Tests used:
[1] = system: AtT20 cells stably transfected with POMC promoter driven luciferase; assay: POMC promoter-driven luciferase assay (POMC-Luc); format: cell-based, murine; conditions: Mus musculus, 24 h, 1 day, read-out: EC50 for POMC transcription inhibition
Description: FIG. 6H depicts the results of a study wherein AtT20 cells were treated with panobinostat and burparlisib simultaneously to detect the effects on POMC transcription.
Using a POMC promoter-driven luciferase assay, the direct actions of the aforementioned compounds on POMC transcription was examined.

AtT20 cells = assay: AtT20 cell proliferation IC50 (CellTiter-Glo); format: cell-based, murine; conditions: Mus musculus, AtT20, 72 h, 3 days, read-out: IC50 for proliferation inhibition
Description: The IC50 values were calculated using sigmoidal dose-response curve (GraphPad Prism).
In one aspect, the invention provides a “gain of signal” ACTH AlphaLISA assay useful for a high throughput screen (HTS) evaluation. Using ACTH AlphaLISA assay described herein in combination with nuclei staining (Hoechst 33342 dye), the inventors screened an annotated kinase inhibitor library.

`O=C(CCCCCCC(=O)Nc1ccccc1)NO` [vorinostat] was tested, and the EC50 [1] was 500 nM and the IC50 (AtT20 cells) was 2000 nM.
